Measured data: PubChem BioAssay AID1259405 (NCATS, 2018)

Assay: 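Mouse-designed siRNAs used to find CHO productivity engineering targets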 (primary screen)
System: Chinese hamster CHO-K1 ovary cells with stable secreted eGFP expression
Knock-down reagent: single siRNA against mouse genes, 0.8 pmol siRNA per well (2 µl of 400 nM stock)
Timing: 3 days
Read-out: 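Percent of the per-plate non-targeting control median for intracellular GFP per well by laser scanning cytometry and for cell viability by ATP luminescence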
Direction: GFP, % of control: higher = more GFP per well, higher productivity; viability (ATP), % of control: higher = more viable cells (more ATP)
Rule for the call: 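a knock-down is called active if GFP reaches 120% or more of non-targeting control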
Shown is one part, drawn at random, of about 50,000 deposited reagents. About 4,000 of them (8%) count as active. 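Mouse siRNA library applied to hamster cells; one well for each siRNA.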 Reagents against one gene are numbered here.

gene knocked down	reagent no.	GFP, % of control	viability (ATP), % of control	outcome
Vmn1r16 (GeneID 171202)	1	75.9	61	inactive
Vmn1r16 (GeneID 171202)	2	42.9	42.4	inactive
Vmn1r16 (GeneID 171202)	3	59.7	96.8	inactive
Tmem260 (GeneID 218989)	1	75.2	51.6	inactive
Tmem260 (GeneID 218989)	2	58.7	71.2	inactive
Tmem260 (GeneID 218989)	3	99.3	95.2	inactive
Or2b7 (GeneID 404335)	1	49.9	68.8	inactive
Or2b7 (GeneID 404335)	2	83.6	83.2	inactive
Or2b7 (GeneID 404335)	3	38.5	68.7	inactive
Arhgef11 (GeneID 213498)	1	90.8	110	inactive
Arhgef11 (GeneID 213498)	2	98.3	156	inactive
Arhgef11 (GeneID 213498)	3	95.6	96.1	inactive
Ankk1 (GeneID 244859)	1	134	110	active
Ffar1 (GeneID 233081)	1	96.4	81.2	inactive
Ffar1 (GeneID 233081)	2	77.2	71	inactive
Ffar1 (GeneID 233081)	3	187	79.5	active
Med13l (GeneID 76199)	1	66.8	67.9	inactive
Med13l (GeneID 76199)	2	60.4	90.7	inactive
Med13l (GeneID 76199)	3	82.4	114	inactive
Shroom1 (GeneID 71774)	1	97	89.5	inactive
Shroom1 (GeneID 71774)	2	79.4	67.4	inactive
Tmem116 (GeneID 77462)	1	73.4	65.7	inactive
Tmem116 (GeneID 77462)	2	67	79.3	inactive
Tmem116 (GeneID 77462)	3	117	140	inactive
Irs3 (GeneID 16369)	1	83.4	84.6	inactive
Irs3 (GeneID 16369)	2	34.9	19.5	inactive
Irs3 (GeneID 16369)	3	177	53.3	active
Slc30a8 (GeneID 239436)	1	89.4	85.8	inactive
Slc30a8 (GeneID 239436)	2	96	97.5	inactive
Slc30a8 (GeneID 239436)	3	90.3	85.1	inactive
Zfa-ps (GeneID 22639)	1	102	88.8	inactive
Zfa-ps (GeneID 22639)	2	124	122	active
Zfa-ps (GeneID 22639)	3	86.3	81.4	inactive
Dnaja4 (GeneID 58233)	1	81.3	73.5	inactive
Dnaja4 (GeneID 58233)	2	98.8	95.3	inactive
Dnaja4 (GeneID 58233)	3	66.4	105	inactive
Selenon (GeneID 74777)	1	168	68	active
Selenon (GeneID 74777)	2	74.2	75.1	inactive
Selenon (GeneID 74777)	3	78.8	75.1	inactive
Lamc1 (GeneID 226519)	1	88.8	89.3	inactive
Lamc1 (GeneID 226519)	2	60.2	117	inactive
Rbfox3 (GeneID 52897)	1	106	99.9	inactive
Rbfox3 (GeneID 52897)	2	80.6	93.1	inactive
Rbfox3 (GeneID 52897)	3	40.9	61.4	inactive
Usp17la (GeneID 13531)	1	114	100	inactive
Usp17la (GeneID 13531)	2	40	51.7	inactive
Usp17la (GeneID 13531)	3	68.1	60.8	inactive
Pitpnm2 (GeneID 19679)	1	57.5	49.5	inactive
Pitpnm2 (GeneID 19679)	2	80.7	102	inactive
Pitpnm2 (GeneID 19679)	3	72.9	67.7	inactive
Gm839 (GeneID 330379)	1	106	86.2	inactive
Gm839 (GeneID 330379)	2	73.3	66.7	inactive
Gm839 (GeneID 330379)	3	96.5	72.1	inactive
Cc2d1b (GeneID 319965)	1	43.9	35.6	inactive
Cc2d1b (GeneID 319965)	2	15.4	14.8	inactive
Cc2d1b (GeneID 319965)	3	91.6	75.3	inactive
Ccni (GeneID 12453)	1	68.2	73.8	inactive
Ccni (GeneID 12453)	2	79.1	103	inactive

Looked up above:
Value for Gm839 (GeneID 330379) #3 under “GFP, % of control”: 96.5
Lamc1 (GeneID 226519) #2, viability (ATP), % of control = 117
Under “viability (ATP), % of control”, Selenon (GeneID 74777) #2 has 75.1
Result of Tmem260 (GeneID 218989) #2 in “outcome”: inactive
Under “viability (ATP), % of control”, Vmn1r16 (GeneID 171202) #3 has 96.8
